Experimental data as given in paper PMC12445521.
Results are given in words; binding and its absence hold for the method and conditions named. In cells and extracts the contact can be indirect.

Columns and labels:
[1] = target: GFP-tagged PEDV S protein (in IPEC-J2) (porcine epidemic diarrhea virus (PEDV), strain AH2012/12)
[2] = target: GFP-tagged PEDV E protein (in IPEC-J2) (porcine epidemic diarrhea virus (PEDV), strain AH2012/12)
[3] = target: GFP-tagged PEDV N protein (in IPEC-J2) (porcine epidemic diarrhea virus (PEDV), strain AH2012/12)

Measured: binding

B1: endogenous porcine AurA (enzyme, UniProt A5GFW1 1-402)
chain: MDKCKENCISGLKTTVPPGDGPKRVPVTQHFPAQHLPSANSGQAQRVLCPSNSSQRLPSHTQKLVSSHKPVQNLKQKQSQATSGPRPVSRPLSNTQQSEQPQPAAPGNNPEKEAASKQKNEESKKRQWALEDFEIGRPLGKGKFGNVYLAREKQSKFILALKVLFKTQLEKAGVEHQLRREVEIQSHLRHPNILRLYGYFHDATRVYLILEYAPLGAVYRELQKLSKFDEQRTATYITELANALSYCHSKRVIHRDIKPENLLLGSAGELKIADFGWSVHAPSSRRTTLCGTLDYLPPEMIEGRMHDEKVDLWSLGVLCYEFLVGKPPFEANTYQETYKRISRVEFTFPDFVPEGARDLISRLLKHNPSHRPTLKEVLEHPWITANSKPASSHKKESTSKQP
no binding: all assays above
